Values quoted from earlier work in publication PMC11365112, “Time-resolved fluorescence of tryptophan characterizes membrane perturbation by cyclic lipopeptides” (Biophysical Journal, 2024).

From the text: As a consequence, dipolar relaxation is possible to a similar extent in both but slower in heavy water. For virtually fully buffer-exposed Trp in NATA, switching from buffer prepared with normal water to buffer prepared with heavy water increases the relaxation time by a factor of RD/H = trel(D2O)/trel(H2O) = 1.53 ([78]). A similarly high RD/H is expected whenever relaxation proceeds via bulk-like water reorientation only. For the mostly membrane-inserted W-viscosins in ...

Row | Compound | RD/H (probe in carbonyl region of POPC membranes) | RD/H = trel(D2O)/trel(H2O) (fully buffer-exposed Trp in buffer)
1 | CCCCCCCCCCCC(=O)c1ccc2cc(N(C)C)ccc2c1 [Laurdan] | 1.18 | –
2 | CC(=O)N[C@@H](Cc1c[nH]c2ccccc12)C(N)=O [NATA, N-Acetyl-L-tryptophan amide] | – | 1.53
